{"source": "PubChem BioAssay AID504764 (Drosophila RNAi Screening Center, 2011)", "test": "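Genome-wide screen for regulators of Notch-driven gene expression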 (primary screen)", "system": "Drosophila Kc167 cells", "reagents": "long dsRNA against Drosophila genes", "timing": "about 5 days (4 days dsRNA, then 24 h after transfection)", "conditions": "transfection of constitutively active membrane-tethered Notch lacking the extracellular domain, read 24 h later", "measured": "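Firefly luciferase from an E(spl)m3 reporter with active Notch, plus control-promoter and uninduced reporter wells for normalisation; unnormalised counts, duplicate wells a and b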", "scale": "induced reporter light, run 1, well a and induced reporter light, run 1, well b: higher = more light from the Notch target reporter with active Notch; control promoter light, run 1, well a and control promoter light, run 1, well b: higher = more light from the viral control promoter (cell number, transfection, viability); uninduced reporter light, run 1, well a: higher = more light from the Notch target reporter without active Notch", "active means": "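Wells with low control signal or poorly matching duplicates excluded; duplicates averaged; per source plate, z beyond ±2 for induced/control log2 ratio or beyond ±1.8 for induced/uninduced marks a hit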", "meaning of the calls": "active = modifier hit (raised or lowered Notch signal); inactive = not a hit", "note": "The screen tested about 22,000 reagents; shown is an unselected part of those that have a named target and a result. Over the whole deposit, 403 (1.9%) are marked active. 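Unnormalised raw counts per well; ratio z-scores behind the hit calls and whether each hit raises or lowers signal are not deposited.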 A number with no mark means an inactive call. The record does not give: the amount of reagent."}
{"gene": "CG13044", "amplicon": "DRSC09925", "induced reporter light, run 1, well a": 1.16e5, "induced reporter light, run 1, well b": 95800, "control promoter light, run 1, well a": 1.51e5, "control promoter light, run 1, well b": 1.47e5, "uninduced reporter light, run 1, well a": 6920}
{"gene": "CG31678", "amplicon": "DRSC02618", "induced reporter light, run 1, well a": 1.99e5, "induced reporter light, run 1, well b": 1.72e5, "control promoter light, run 1, well a": 1.39e5, "control promoter light, run 1, well b": 1.48e5, "uninduced reporter light, run 1, well a": 13042}
{"gene": "CG31678", "amplicon": "DRSC02619", "induced reporter light, run 1, well a": 55975, "induced reporter light, run 1, well b": 39935, "control promoter light, run 1, well a": 26645, "control promoter light, run 1, well b": 28660, "uninduced reporter light, run 1, well a": 2080}
{"gene": "arx", "amplicon": "DRSC10386", "induced reporter light, run 1, well a": 1.45e5, "induced reporter light, run 1, well b": 1.14e5, "control promoter light, run 1, well a": 69615, "control promoter light, run 1, well b": 85915, "uninduced reporter light, run 1, well a": 9440}
{"gene": "CG12301", "amplicon": "DRSC09875", "induced reporter light, run 1, well a": 93995, "induced reporter light, run 1, well b": 90975, "control promoter light, run 1, well a": 58020, "control promoter light, run 1, well b": 73185, "uninduced reporter light, run 1, well a": 7320}
{"gene": "ppk14", "amplicon": "DRSC03238", "induced reporter light, run 1, well a": 1.42e5, "induced reporter light, run 1, well b": 1.66e5, "control promoter light, run 1, well a": 1.71e5, "control promoter light, run 1, well b": 1.82e5, "uninduced reporter light, run 1, well a": 9335}

Limited to “induced reporter light, run 1, well b” (2 entries from above):
arx [DRSC10386]	1.14e5
CG12301 [DRSC09875]	90975

Next entries follow:
{"gene": "Cul5", "amplicon": "DRSC14723", "induced reporter light, run 1, well a": 1.48e5, "induced reporter light, run 1, well b": 1.48e5, "control promoter light, run 1, well a": 2.02e5, "control promoter light, run 1, well b": 2.02e5, "uninduced reporter light, run 1, well a": 10855}
{"gene": "Hml", "amplicon": "DRSC11183", "induced reporter light, run 1, well a": 2.48e5, "induced reporter light, run 1, well b": 2.11e5, "control promoter light, run 1, well a": 3.28e5, "control promoter light, run 1, well b": 2.25e5, "uninduced reporter light, run 1, well a": 14515}
{"gene": "CG4199", "amplicon": "DRSC18519", "induced reporter light, run 1, well a": 1.97e5, "induced reporter light, run 1, well b": 2.33e5, "control promoter light, run 1, well a": 2.94e5, "control promoter light, run 1, well b": 3.71e5, "uninduced reporter light, run 1, well a": 14635}
{"gene": "CG31445", "amplicon": "DRSC14443", "induced reporter light, run 1, well a": 2.05e5, "induced reporter light, run 1, well b": 2.05e5, "control promoter light, run 1, well a": 2.65e5, "control promoter light, run 1, well b": 2.14e5, "uninduced reporter light, run 1, well a": 14665}
{"gene": "CG17896", "amplicon": "DRSC18502", "induced reporter light, run 1, well a": 2.18e5, "induced reporter light, run 1, well b": 2.47e5, "control promoter light, run 1, well a": 3.16e5, "control promoter light, run 1, well b": 3.26e5, "uninduced reporter light, run 1, well a": 15865}
{"gene": "Mal-A2", "amplicon": "DRSC07460", "induced reporter light, run 1, well a": 2.08e5, "induced reporter light, run 1, well b": 2.22e5, "control promoter light, run 1, well a": 2.59e5, "control promoter light, run 1, well b": 2.30e5, "uninduced reporter light, run 1, well a": 16205}
